Some of the results follow. The main result of the screen is listed elsewhere. These columns were measured beside it and carry no call. Compounds called inactive in the main read-out are mostly missing here. The note in brackets gives the kind of curve behind each potency; many fits are weak.
Assay: qHTS Assay for Lipid Storage Modulators in Drosophila S3 Cells;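 as to cell number change: cells counted by Cell Tracker Red CMTPX staining in the red channel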
Details: BODIPY lipid droplet fluorescence, 18-24 h; for cell number change: measured here: cell count max response, cells fed with added oleic acid
Outline: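 Drosophila S3 cells got compounds at several concentrations plus oleic acid (400 uM solution). Laser-scanning cytometry with 488 nm excitation read lipid droplets at 500-530 nm and cells at 575-640 nm. Percent activity was relative to 20 uM Triacsin C.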

[1] = measured here: lipid fluorescence (Fed channel) AC50, cells fed with added oleic acid
[2] = measured here: cell number channel AC50, cells fed with added oleic acid

Compound	cell number change [%]	AC50 [1]	AC50 [2]
O=C(CCN1CCOCC1)Nc1ccc(F)cc1	-4.56	5.17 µM [rising, full curve]	
Cc1ccc2nc(N3C(=O)C(O)=C(C(=O)c4ccco4)C3c3cccc(O)c3)sc2c1 (stereo not given)	-21.1		
CC(=O)c1ccc(N2CCN(S(=O)(=O)c3ccc4c(c3)CC(C)N4C(C)=O)CC2)cc1 (stereo not given)	-45.4	11.6 µM [falling, partial curve]	18.4 µM [falling, single point]
COc1ccc(NC(=O)N2CCCc3ccccc32)c(OC)c1	6.44		4.11 µM [rising, single point]
CCCn1c(CCNc2nc(-c3ccc(OC)cc3)cs2)nc2ccccc21	2.27	0.291 µM [rising, full curve, poor fit]	
COC(=O)C1=C(O)C2(C(=O)O)CC(C(=O)OC)=C(O)C(C(=O)O)(C1)C2	-9.67	0.116 µM [falling, full curve, poor fit]	
COc1cc(NC(=O)Cc2cccs2)cc(OC)c1	14.2	11.6 µM [rising, partial curve]	
CCCCn1c(=O)n(Cc2cccc(F)c2)c(=O)c2c1ncn2Cc1ccco1		6.51 µM [rising, single point]	6.51 µM [rising, single point]
CCOC(=O)C1CCN(C(=O)c2cc(S(=O)(=O)N3CCc4ccccc43)ccc2OC)CC1	-75		29.1 µM [falling, single point]
COc1ccc(NC(=O)COC(=O)CNC(=O)C2CCCCC2)cc1	-16.9	0.231 µM [falling, full curve, poor fit]	
Cc1ccc(NS(=O)(=O)c2cccc(C(=O)O)c2)c(C)c1	0.0328		
O=C(Nc1ccc(Cl)cn1)c1cccc2ccccc12	2.55	20.6 µM [rising, partial curve]	
COC(=O)/C=C1\S/C(=N/NC(=O)c2ccccc2)NC1=O	-17		1.46 µM [falling, partial curve]
COc1ccc(-c2nc(N3CCC(C)CC3)[nH]c(=O)c2C#N)cc1	-40.7		32.6 µM [falling, single point]
NS(=O)(=O)c1ccc(Cc2ncc(C(F)(F)F)cc2Cl)s1	67.9		20.6 µM [rising, single point]
O=C(CSc1nn(-c2ccccc2)c(=S)s1)Nc1ncccn1	25.7	23.1 µM [rising, single point]	
COc1ccccc1N(CC(=O)N/N=C(\C)c1ccc(F)cc1)S(=O)(=O)c1ccccc1	32	2.59 µM [rising, partial curve]	7.31 µM [rising, partial curve, poor fit]
O=C(Nc1cc2c(cc1Br)OCCO2)c1cccs1	-2.14		0.461 µM [falling, single point]
CSc1ccc(CN2CCN(C(=O)c3ccc([N+](=O)[O-])cc3)CC2)cc1	-36.2	29.1 µM [falling, single point]	16.4 µM [falling, partial curve]
O=C(N/N=C/c1ccc(Br)s1)Nc1ccccc1	-26.1	0.731 µM [falling, full curve]	

Grouped by structure, the compounds so far with sulfur (13)
Compound	cell number change [%]	AC50 [1]	AC50 [2]
Cc1ccc2nc(N3C(=O)C(O)=C(C(=O)c4ccco4)C3c3cccc(O)c3)sc2c1 (stereo not given)	-21.1		
CC(=O)c1ccc(N2CCN(S(=O)(=O)c3ccc4c(c3)CC(C)N4C(C)=O)CC2)cc1 (stereo not given)	-45.4	11.6 µM [falling, partial curve]	18.4 µM [falling, single point]
CCCn1c(CCNc2nc(-c3ccc(OC)cc3)cs2)nc2ccccc21	2.27	0.291 µM [rising, full curve, poor fit]	
COc1cc(NC(=O)Cc2cccs2)cc(OC)c1	14.2	11.6 µM [rising, partial curve]	
CCOC(=O)C1CCN(C(=O)c2cc(S(=O)(=O)N3CCc4ccccc43)ccc2OC)CC1	-75		29.1 µM [falling, single point]
Cc1ccc(NS(=O)(=O)c2cccc(C(=O)O)c2)c(C)c1	0.0328		
COC(=O)/C=C1\S/C(=N/NC(=O)c2ccccc2)NC1=O	-17		1.46 µM [falling, partial curve]
NS(=O)(=O)c1ccc(Cc2ncc(C(F)(F)F)cc2Cl)s1	67.9		20.6 µM [rising, single point]
O=C(CSc1nn(-c2ccccc2)c(=S)s1)Nc1ncccn1	25.7	23.1 µM [rising, single point]	
COc1ccccc1N(CC(=O)N/N=C(\C)c1ccc(F)cc1)S(=O)(=O)c1ccccc1	32	2.59 µM [rising, partial curve]	7.31 µM [rising, partial curve, poor fit]
O=C(Nc1cc2c(cc1Br)OCCO2)c1cccs1	-2.14		0.461 µM [falling, single point]
CSc1ccc(CN2CCN(C(=O)c3ccc([N+](=O)[O-])cc3)CC2)cc1	-36.2	29.1 µM [falling, single point]	16.4 µM [falling, partial curve]
O=C(N/N=C/c1ccc(Br)s1)Nc1ccccc1	-26.1	0.731 µM [falling, full curve]	

Next structures follow.

Compound	cell number change [%]	AC50 [1]	AC50 [2]
CO/N=C/C1C(=O)NN=C1c1ccccc1 (stereo not given)	77		13 µM [rising, partial curve]
CC(=O)/C(CN1CCCCC1)=N\O	0.065		
COc1ccc(-c2cc(C(=O)N/N=C/c3cccnc3)c3cc(C)cc(C)c3n2)cc1	75.2		
CC(=O)c1ccc(NC(=O)CSc2ccc(-c3ccc4c(c3)OCO4)nn2)cc1	12.6	0.13 µM [rising, full curve, poor fit]	
O=C(CC(C(=O)O)c1ccc(Cl)cc1)c1ccc(Br)cc1 (stereo not given)	-1.39	29.1 µM [falling, partial curve]	
Brc1ccc(-c2csc3ncnc(-n4nnc5ccccc54)c23)cc1	24.4		
COc1ccc2nc(NC(=O)c3ccc4ncsc4c3)sc2c1	-31.2	1.84 µM [rising, partial curve, poor fit]	13 µM [falling, single point]
CN(C)c1ccnc(NCc2ccccc2)c1C#N	113	29.1 µM [rising, partial curve]	13 µM [rising, partial curve]
CCCCN(CC)CCNC(=S)Nc1ccc2nc(N3CCN(C)CC3)cc(C)c2c1	9.72	0.103 µM [falling, full curve, poor fit]	
S=c1[nH]nc(-c2ccco2)n1/N=C/C(Cl)=C/c1ccccc1	-54	7.31 µM [falling, partial curve]	4.61 µM [falling, partial curve]
CCc1cccc(C)c1NC(=O)C1CC(=O)N(C2CCCC2)C1 (stereo not given)	-6.56	29.1 µM [rising, single point]	
COc1ccc(C(=O)OCC(=O)NC(=O)NC2CCCC2)cc1OC	-16	0.82 µM [rising, full curve, poor fit]	
O=C(NCCCN1CCOCC1)c1ccccc1NS(=O)(=O)c1ccc(F)cc1		5.8 µM [rising, single point]	
CCOC(=O)N1CCN(C(=O)c2cccc(S(=O)(=O)Nc3ccc(OC)cc3)c2)CC1	49.7	20.6 µM [rising, partial curve]	4.61 µM [falling, partial curve]
CN(C)S(=O)(=O)c1cccc(C(=O)NCC(C)(C)CNC(=O)c2cccc(S(=O)(=O)N(C)C)c2)c1	4.7	20.6 µM [falling, single point]	
NC(=O)c1cccc(S(=O)(=O)N2CC(c3ccccc3)CC2=O)c1 (stereo not given)	12	0.058 µM [falling, full curve, poor fit]	0.116 µM [falling, single point]
CCS(=O)(=O)Nc1ccc2[nH]c(=O)[nH]c2c1	-54.2		
Cn1c(=O)n(C)c2cc([N+](=O)[O-])c(N3CCN(C(=O)c4ccccc4)CC3)cc21	12.3		
COc1ccc(NS(=O)(=O)c2cc(NC(=O)c3cccs3)ccc2N2CCCC2)cc1	-9.75	23.1 µM [rising, partial curve]	
Cc1nc2ncnn2c(C)c1Cc1ccc(Cl)cc1	19.7		

Compound	cell number change [%]	AC50 [1]	AC50 [2]
CCn1c(SCC(=O)N2c3ccccc3Sc3ccccc32)nc2c1c(=O)n(C)c(=O)n2C	18.4		
Cc1ccc(C(=O)Nc2cccc(-c3ccc(N4CCOCC4)nn3)c2)cc1	-54.2		18.4 µM [falling, single point]
CN(CCOCCOc1ccc2ccccc2c1)Cc1ccccc1	31		13 µM [rising, single point]
O=C(C[n+]1cc(Br)cc2ccccc21)c1ccc(F)cc1	-2.78	29.1 µM [rising, single point]	
COC(=O)c1noc(-c2ccc(C)cc2)n1	11.1	6.51 µM [rising, single point]	
Cc1ccc(NS(=O)(=O)c2ccc(N/N=C/c3ccccc3OCC(=O)O)c([N+](=O)[O-])c2)c(C)c1	11.3	32.6 µM [rising, partial curve, poor fit]	
COc1ccc(NC(=O)Cn2nc(Cc3cccnc3)c3ccccc3c2=O)cc1OC		6.51 µM [rising, single point]	
O=C(NCCc1ccc(C(F)(F)F)cc1)C1CCC(=O)N(CCc2cccc(F)c2)C1 (stereo not given)	21.1		
COc1ccc(/C=C/C(=O)NCc2c(C)nn(C)c2C)cc1COc1ccc(Br)cc1	-68.6	23.1 µM [falling, partial curve]	20.6 µM [falling, partial curve]
CSc1ccccc1C(=O)OCC(=O)N1CCCC1=O	4.35	3.26 µM [rising, partial curve]	
CCCCOc1cccc(C(=O)NC(=S)Nc2cccc(C(F)(F)F)c2)c1	25.1	13 µM [rising, partial curve]	0.366 µM [falling, single point]
CC(C)Cn1c(=S)[nH]c2cc(C(=O)NCc3ccccc3F)ccc2c1=O	4.24		0.13 µM [falling, full curve, poor fit]
O=C(c1ccc(Cl)cc1)n1c(NCc2ccccc2)n[nH]c1=S	11		4.11 µM [rising, partial curve, poor fit]
Cc1ccc(CN2C(=O)N/C(=C/c3ccc(-c4ccc(C(=O)O)cc4)o3)C2=O)cc1	-24.2	0.259 µM [falling, full curve]	0.13 µM [falling, full curve, poor fit]
O=C(CSc1ccc2c(c1)OCCO2)NCc1ccccc1	27.5	0.259 µM [rising, full curve, poor fit]	
O=C(c1ccc(CS(=O)c2cccc(Cl)c2)o1)N1CCN(c2ccccn2)CC1 (stereo not given)		14.6 µM [falling, partial curve]	
O=C(COc1nsnc1N1CCOCC1)Nc1ccc([N+](=O)[O-])cc1	2.86	29.1 µM [rising, partial curve, poor fit]	
O=C(NCCO)C1(c2ccccc2)CCCC1		0.58 µM [falling, single point]	
O=C(Nc1cccc([N+](=O)[O-])c1)c1ccc2c(c1)OCCO2		6.51 µM [rising, partial curve, poor fit]	
COc1cccc(-c2ccc(-c3noc(-c4ccccc4F)n3)c(OC)n2)c1		0.58 µM [rising, single point]	
